Measurements taken from US9533937B2, “Use of metal scavengers for removal of ruthenium residues” (Apeiron Synthesis S.A., priority 2013, dated 2017).
Read-outs that look alike come from different tables or passages of the source.

Assays:
[1] = cited from earlier work
[2] = Removal of ruthenium residues from post-reaction mixtures with metal scavengers, filtration through silica gel; Ru content by ICP-MS

In the case of `OCP(CO)CO`, the “Ru contamination of the product” value ([1]; scavenger 430 mol %, 0.16 hours, adding SiO2, filtration) is given as 206 ppm and the “Ru contamination of the product” value ([1]; scavenger 430 mol %, 0.16 hours, purification by extraction) is given as 670 ppm.
For `O=P(c1ccccc1)(c1ccccc1)c1ccccc1`, the “Ru contamination of the product” value ([1]; scavenger 250 mol %, 12 hours, chromatography over SiO2) is given as 240 ppm.
In the case of `[C-]#[N+]CCN1CCOCC1`, the “Ru contamination of the product” value ([2]; Table 2 reaction, scavenger 4.4 mol %, 22 °C, CH2Cl2) is reported as 17 ppm and the “Ru contamination of the product” value ([2]; Table 2 reaction, scavenger 8.8 mol %, 22 °C, CH2Cl2) is reported as 11 ppm.
With `[C-]#[N+]CC(=O)[O-].[K+]` [CNCH2CO2K] the “Ru contamination of the product” value ([2]; Table 3, (pre)catalyst drawing 20, scavenger 8.8 mol %) was 142 ppm, the “Ru contamination of the product” value ([2]; Table 3, (pre)catalyst drawing 21, scavenger 8.8 mol %) was 251 ppm and the “Ru contamination of the product” value ([2]; Table 3, (pre)catalyst drawing 22, scavenger 8.8 mol %) was 159 ppm. The “Ru contamination of the product” value ([2]; Table 3, (pre)catalyst drawing 23, scavenger 8.8 mol %) was 370 ppm and the “Ru contamination of the product” value ([2]; Table 4 reaction, scavenger 8.8 % mol, 70 °C, toluene) was 189 ppm.
